Article PMC7819943, “Rice protein-binding microarrays: a tool to detect cis-acting elements near promoter regions in rice”
Some of the results follow.

Chains of the proteins cited; added tags and fusions are not shown.
UniProt Q0JBA9, entry or part of it: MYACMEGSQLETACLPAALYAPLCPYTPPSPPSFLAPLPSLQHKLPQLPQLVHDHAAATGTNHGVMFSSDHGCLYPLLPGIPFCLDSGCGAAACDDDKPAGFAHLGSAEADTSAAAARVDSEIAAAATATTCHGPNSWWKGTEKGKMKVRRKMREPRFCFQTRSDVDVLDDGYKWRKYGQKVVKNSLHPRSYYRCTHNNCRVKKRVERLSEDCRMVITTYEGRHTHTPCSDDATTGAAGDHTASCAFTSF

molecular target: OsWRKY34 (Oryza sativa, UniProt Q0JBA9 1-250); test: protein-binding microarray (RPBM); PBS, 2% BSA, 51.3 ng/ul salmon testes DNA, 50 uM zinc acetate, 200 nM TF, 25 C, 1 h; high values mean tight binding; conditions: protein: recombinant; tags: N-terminal polyhistidine and DsRed monomer fusion (pET32a); label: CyDye5-dUTP incorporated in the synthesized complementary strand; 3' TTTTT single-stranded linker to array surface; dsDNA, one strand shown
How it was run: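 Transcription factors were each fused at the N-terminus to a polyhistidine tag plus DsRed and expressed in E. coli BL21-CodonPlus before Ni–NTA purification. Binding to a double-stranded custom Agilent array was carried out with 200 nM protein at 25 °C for 1 h in PBS, 2% BSA, salmon testes DNA and 50 µM zinc acetate. The binding signal is per-feature fluorescence intensity, in arbitrary units, on an Axon 4000B scanner.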

Point of comparison: “AAACGATAAAGGTTGTTTCCGTCCGTTTCCGTACCGTTTTCGGAGTCACCTAGTGCAG”, binding signal 10400 fluorescence intensity (a.u.). Against it:
- CTTCTGGCCTTCTGCTGCTCCGATCTACTACTACTTATTACGGAGTCACCTAGTGCAG — lower, 8140 fluorescence intensity (a.u.)
- GTAGCCCAACACGTCTGTCATACTGTACGGGTATAAATACCGGAGTCACCTAGTGCAG — lower, 8770 fluorescence intensity (a.u.)
- AAGTCATATCACCTTGTTTTTTATGTTTAAATCACCATTCCGGAGTCACCTAGTGCAG — lower, 8270 fluorescence intensity (a.u.)
- TTTTTGCTAATTTTTCCTTATGTCTTTTTTTTTGCAAATACGGAGTCACCTAGTGCAG — lower, 8040 fluorescence intensity (a.u.)
- CACGACACACACACACCAGCAACGGGGATTAGAAGTTGACCGGAGTCACCTAGTGCAG — lower, 10200 fluorescence intensity (a.u.)
- ACACGAACTTTAACCACCTCTAGCTACTTCCTTTTTTTCTCGGAGTCACCTAGTGCAG — higher, 11900 fluorescence intensity (a.u.)
- CCTTTCTTTCCTTTTCTTTACCTCAACACGCCGAGAACGTCGGAGTCACCTAGTGCAG — lower, 8480 fluorescence intensity (a.u.)
- GTGCTATTCGTATTACTTTATACCCGTGTAATCAATCACCCGGAGTCACCTAGTGCAG — higher, 12100 fluorescence intensity (a.u.)
- CGATCTTGCCCTGGTTGGTTGGTGGTGGTGGTGGGTTTTGCGGAGTCACCTAGTGCAG — higher, 37100 fluorescence intensity (a.u.)
- ATGAGCTGCGCACCTACCCTCTCGTGACCACCGGCTTCAACGGAGTCACCTAGTGCAG — lower, 8400 fluorescence intensity (a.u.)
- ACGTGCCCGTGTCACGCTCGCGCCGCGCCCCGCCACGCTCCGGAGTCACCTAGTGCAG — lower, 9720 fluorescence intensity (a.u.)
- TTTGTCCTTTCGATTGCAACATATAGAAGTTGAATTTAGTCGGAGTCACCTAGTGCAG — lower, 8400 fluorescence intensity (a.u.)
- GGTTTTTTTTCTCTTTTGTACGCGTAGCAATTTTAGCTTTCGGAGTCACCTAGTGCAG — lower, 8830 fluorescence intensity (a.u.)
- TGTTAGTTAGATCAGGTTAATTATTAACATCACCCATTTCCGGAGTCACCTAGTGCAG — lower, 8400 fluorescence intensity (a.u.)
- GGAGAGATGCCATGCCGCGCTATGTTGTTCAACTTCAAACCGGAGTCACCTAGTGCAG — lower, 8400 fluorescence intensity (a.u.)
- AGGTGGAGGTGGGGAGGATGCGGGAGAGGGAGGTGATGATCGGAGTCACCTAGTGCAG — higher, 14000 fluorescence intensity (a.u.)
- AGAAGCGCATGTAGGGGATGCCCGGGTTGACCGCCTTGCTCGGAGTCACCTAGTGCAG — lower, 9170 fluorescence intensity (a.u.)
- ATGGTGGTTCTAATTCTGTTGGTTGACTGCTCTCTGAAATCGGAGTCACCTAGTGCAG — higher, 13300 fluorescence intensity (a.u.)
- AAAGGTGGTGGTAGGGGATAGATCCGGGGCGGGCGGCATGCGGAGTCACCTAGTGCAG — higher, 23400 fluorescence intensity (a.u.)
- GGTACATGTTCTTATATATTCTGGCGCATTTCGATTCGAGCGGAGTCACCTAGTGCAG — higher, 13900 fluorescence intensity (a.u.)
- AATTAAACCCAAATCGATCCCTTTTATTTCCTATCTTGCACGGAGTCACCTAGTGCAG — higher, 10600 fluorescence intensity (a.u.)
- ATTTATGGTTTAGTTCCCAACTTTTTCTTCAAACTTTCAACGGAGTCACCTAGTGCAG — lower, 8550 fluorescence intensity (a.u.)
- CTCGCAATACCACCTTAAGCCCTTGACAAGCTTTTAAAACCGGAGTCACCTAGTGCAG — lower, 10300 fluorescence intensity (a.u.)
- CATTCGTAGTGGTCAGTACTCTCCCGTGCACTCCTACTAGCGGAGTCACCTAGTGCAG — lower, 9070 fluorescence intensity (a.u.)
- GATCACTGTCACAAGTTCGTTCAGCTGCATTTTTCAAAAACGGAGTCACCTAGTGCAG — lower, 9890 fluorescence intensity (a.u.)
- GCATGTATTGATGTTTGTTTGTTAAGAATGAAGTGAGAAACGGAGTCACCTAGTGCAG — lower, 9140 fluorescence intensity (a.u.)
- GAGAAATGAATGGACCCAATAGTACGGAGGGGAGGGGAGCCGGAGTCACCTAGTGCAG — lower, 8770 fluorescence intensity (a.u.)
- CACTCGCATGCGAACGACCGTGCTCTACCTCTTACGCTATCGGAGTCACCTAGTGCAG — higher, 10700 fluorescence intensity (a.u.)
- GGTTTTGCGGTTGAGCGAAACGACCCAATGGGAATCAAGACGGAGTCACCTAGTGCAG — higher, 60000 fluorescence intensity (a.u.)
- GGGAAGGAGGGAGTACATGATTAATTGAGTATTAAATGTTCGGAGTCACCTAGTGCAG — lower, 8230 fluorescence intensity (a.u.)
- CTCCCCTGTCCTCCCCGATTCCCAATCTCGCTCTCAAGTCCGGAGTCACCTAGTGCAG — lower, 8140 fluorescence intensity (a.u.)
- ACCACCACCCGTCACCCACCTCCGCGTCCTCGCCGGAGCACGGAGTCACCTAGTGCAG — lower, 9300 fluorescence intensity (a.u.)
- CACCACATTCTTCCAGGTTCCAATCTTTGATTAGTTGGTTCGGAGTCACCTAGTGCAG — lower, 9690 fluorescence intensity (a.u.)
- TCCATCGGTCACCGCCGCCCCGCCCCGTCGCGAGCGACCTCGGAGTCACCTAGTGCAG — lower, 9150 fluorescence intensity (a.u.)
- AGCCATTTCTGTTCCACTCAACCTGTTCCTTCTATTCTTTCGGAGTCACCTAGTGCAG — higher, 11500 fluorescence intensity (a.u.)
- TCTCTTCTATCCCTATTCCGTTAGTTGACTGTTAGATTTTCGGAGTCACCTAGTGCAG — higher, 10700 fluorescence intensity (a.u.)
- CAAGCTACTAGCTAGCTCCTCACTTCTTCCAGCTTCTTACCGGAGTCACCTAGTGCAG — lower, 8990 fluorescence intensity (a.u.)
- CGCCTCCGATGCGCTGCGCCATGATCAACCACCGACTTTTCGGAGTCACCTAGTGCAG — higher, 12600 fluorescence intensity (a.u.)
- ATTGGTTGGGAATGTGATGTTATTAGAAATGTTATATTTTCGGAGTCACCTAGTGCAG — lower, 8300 fluorescence intensity (a.u.)
- AACCACCTTTGTTTTGGGGTCTGGCTAAACCGTATGGTCACGGAGTCACCTAGTGCAG — lower, 8890 fluorescence intensity (a.u.)
- ATTCCGGGCTGTAAATTCGGTGGGCTTGGTGTCTAACAACCGGAGTCACCTAGTGCAG — lower, 8100 fluorescence intensity (a.u.)
